Laboratory results as given in PubChem BioAssay AID504834 (National Center for Advancing Translational Sciences (NCATS), 2011).
The campaign covered roughly 320,000 compounds. About 22,000 (6.9%) were called active. The inconclusive results got no clear call from the source; some entries with a clear call stand among them for comparison. The call rests on the fitted dose curve; in most records, active means well fitted inhibition curve with a large enough effect; inconclusive means small, poorly fitted or top-dose-only effect, or another doubt; inactive means no such curve, though single readings can be large or run the other way. Where the call is inconclusive, the potency comes from a doubtful curve fit.

Experiment: Primary qHTS for delayed death inhibitors of the malarial parasite plastid, 96 hour incubation
Details: P. falciparum luciferase reporter growth; series mostly up to 28.7 µM
Procedure, shortened: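 Two parasite generations (96 h, 37 C, 5% CO2) of compound exposure in infected erythrocytes (0.05% parasitemia, 2% hematocrit). Luciferase-reporter P. falciparum; decreased luminescence indicates inhibited growth, aimed at apicoplast-acting delayed death.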
Potency means the concentration at half of the fitted maximal effect.

SMILES | Potency
COc1ccc(C(=O)Oc2ccc(/C=N/O)cc2)cc1 | inconclusive: 13.1 µM [inhibitor, partial curve, poor fit]
Cc1ccc2nc(N(CCN(C)C)C(=O)C3=COCCO3)sc2c1 | inactive
COc1ccc(CN2CC(=O)N(c3ccc(C)cc3C)C2=S)cc1OC | inconclusive: 2.94 µM [inhibitor, single point]
Cc1cc(C)c2nc(C)cc(Nc3ccc(C(=O)N4CCOCC4)cc3)c2c1 | inconclusive: 18.5 µM [inhibitor, single point]
Cc1[nH]c2ccccc2c1CCN(Cc1cccs1)C(=S)NC(C)(C)C | inconclusive: 5.86 µM [inhibitor, single point]
COCCNC(=O)C(OC(=O)CC1Sc2ccccc2NC1=O)c1ccncc1 (stereo not drawn) | inconclusive: 1.17 µM [inhibitor, full curve]
O=C(O)Cc1ccc(C(=O)c2cccs2)s1 | active: 10.4 µM
O=C(c1ccc(S(=O)(=O)NCc2ccco2)cc1)N1CCN(Cc2ccccc2F)CC1 | inactive
CC(C)(C)n1ncc2c(=O)n(CC(=O)Nc3ccccc3)cnc21 | inactive
O=C(COCC(=O)N/N=C/c1ccc(F)cc1)N/N=C/c1ccc(F)cc1 | inactive
COc1cc(CC(=O)OCC(=O)N2CC(C)CC(C)C2)cc(OC)c1OC (stereo not drawn) | inactive
COc1cccc(OC)c1C(=O)OCC(=O)NC1CCCCCC1 | inconclusive: 20.8 µM [inhibitor, partial curve, poor fit]
COc1cc(CNc2ccc(CNc3ncn[nH]3)cc2)ccc1OCc1ccccc1 | inactive
COc1cc(N=C2C(=O)N3c4c(cccc42)C(C)=CC3(C)C)cc(OC)c1 | inconclusive: 10.4 µM [inhibitor, single point]
Cc1ccc(N(Cc2cc3ccccc3[nH]c2=O)S(=O)(=O)c2ccccc2)cc1 | inconclusive: 10.4 µM [inhibitor, partial curve, poor fit]
CC(C)CNS(=O)(=O)c1ccc(OCC(=O)NCC2CCCO2)c(Cl)c1 (stereo not drawn) | inconclusive: 16.5 µM [inhibitor, partial curve]
O=C(NCc1ccc2c(c1)OCO2)c1c(Cl)cccc1Cl | inconclusive: 13.1 µM [inhibitor, partial curve, poor fit]
Cc1cc(C)n2nc(C(=O)N3CCN(c4ccc([N+](=O)[O-])cc4)CC3)nc2n1 | active: 5.86 µM
COc1cc(CC(=O)NNC(=O)c2cc(C)oc2C)cc(OC)c1OC | inactive
CS(=O)(=O)Nc1cccc(C2=NN(C(=O)c3ccccc3)C(c3cccs3)C2)c1 (stereo not drawn) | inactive
CCn1cc(SCC(=O)N2CCOCC2)c2ccccc21 | inactive
COc1ccc(N2CCN(C(=O)CN(C3CCCCC3)S(C)(=O)=O)CC2)cc1 | inactive
CCC(=O)Oc1ccc(C(=O)Nc2ccc([N+](=O)[O-])cc2)cc1 | inconclusive: 18.5 µM [inhibitor, single point]
O=C1NC(=O)C(C(CC(=O)c2ccccc2)c2ccccc2)C(=O)N1 (stereo not drawn) | inconclusive: 2.62 µM [inhibitor, full curve, poor fit]
N#CCCN(Cc1cccnc1)C(=S)Nc1ccccc1Cl | inactive

Some of the entries so far, with each value named.
COc1cccc(OC)c1C(=O)OCC(=O)NC1CCCCCC1
  Potency: inconclusive: 20.8 µM [inhibitor, partial curve, poor fit]
CC(C)CNS(=O)(=O)c1ccc(OCC(=O)NCC2CCCO2)c(Cl)c1 (stereo not drawn)
  Potency: inconclusive: 16.5 µM [inhibitor, partial curve]
COc1cc(CC(=O)NNC(=O)c2cc(C)oc2C)cc(OC)c1OC
  Potency: inactive
COc1ccc(N2CCN(C(=O)CN(C3CCCCC3)S(C)(=O)=O)CC2)cc1
  Potency: inactive

Two of these compounds, reformatted.
SMILES	Potency
Cc1cc(C)n2nc(C(=O)N3CCN(c4ccc([N+](=O)[O-])cc4)CC3)nc2n1	active: 5.86 µM
COc1ccc(N2CCN(C(=O)CN(C3CCCCC3)S(C)(=O)=O)CC2)cc1	inactive

Next structures.

SMILES | Potency
CC(C)=Cc1oc2ccc([N+](=O)[O-])cc2c1N1CCOCC1 | inconclusive: 0.037 µM [inhibitor, full curve, poor fit]
Cc1cc(C)cc(NC(=S)NCc2ccncc2)c1 | inconclusive: 11.7 µM [inhibitor, single point]
COc1cccc(C2C(C#N)=C(N)OC(C(C)(C)C)=C2C#N)c1 (stereo not drawn) | inconclusive: 18.5 µM [inhibitor, single point]
Brc1ccc(-c2csc(N/N=C/c3ccco3)n2)cc1 | inconclusive: 18.5 µM [inhibitor, single point]
CCN(CC)C(=O)c1[nH]cnc1C(=O)N[C@H](C)c1ccccc1 | inactive
CCC(C)C(=O)Nn1c(C2CC2)nc2cc(OC)c(OC)cc2c1=O (stereo not drawn) | inconclusive: 13.1 µM [inhibitor, single point]
O=C(NCCN1CCN(C(=O)C(c2ccccc2)c2ccccc2)CC1)C(=O)Nc1ccccc1 | inconclusive: 2.33 µM [inhibitor, full curve]
COc1ccccc1CC1/C(=N/O)C2CCN1CC2 (stereo not drawn) | inconclusive: 10.4 µM [inhibitor, single point]
O=C(C1CC(c2cccc(Br)c2)=NO1)N1CCc2ccccc2C1 (stereo not drawn) | inactive
Cc1cc(C)nc(N2CCC(C(=O)Nc3ccc4c(c3)OCCO4)CC2)n1 | active: 9.28 µM
Cc1cc2c(cc1C)N(Cc1ccccc1)C1=NCCCN12 | active: 7.38 µM
COc1ccc(OC)c(NC(=O)CN(C)CC(=O)Nc2ccccc2Cl)c1 | inconclusive: 13.1 µM [inhibitor, single point]
CCOc1ccc(CCNC(=O)C2CCCN(S(=O)(=O)N3CC(C)CC(C)C3)C2)cc1OCC (stereo not drawn) | inactive
Cc1nc(N2CCC3(CC2)OCCO3)c2nnn(Cc3ccccc3F)c2n1 | inactive
CC(CNC(=O)CN1C(=O)c2cccnc2Oc2ccc(Cl)cc21)c1ccccc1 (stereo not drawn) | inconclusive: 0.117 µM [inhibitor, full curve, poor fit]
COc1ccc(OC)c(Nc2nc(NCCC(C)C)nc(N)c2[N+](=O)[O-])c1 | inconclusive: 1.04 µM [inhibitor, full curve, poor fit]
COc1cc(C2CC(c3cccnc3)=NN2c2ccc(F)cc2)cc(OC)c1OC (stereo not drawn) | inconclusive: 18.5 µM [inhibitor, single point]
CCOC(=O)c1sc(=S)n(C)c1NC(=O)c1ccccc1C | inactive
COc1ccc(NC(=O)Cc2c(F)cccc2Cl)cc1 | inactive
CN(C)c1ccc(/C=N/N2C(=S)SC(C)(C)C2N(O)C(=O)Nc2ccc([N+](=O)[O-])cc2)cc1 (stereo not drawn) | inconclusive: 0.928 µM [inhibitor, full curve, poor fit]
O=C(Nc1ccc(OCC(=O)N2CCOCC2)cc1)c1cccc(Cl)c1 | inactive
CCN(CC(=O)Nc1c(F)cccc1F)C(=O)/C=C/c1cn(Cc2ccccc2)nc1-c1cccnc1 | inconclusive: 3.7 µM [inhibitor, partial curve]
O=C(NNC(=O)c1cc(Br)c(Br)s1)c1csc(N2CCOCC2)n1 | inactive
CCOC(=O)C1CCN(/C=C2\C(=O)NC(=S)N(CC)C2=O)CC1 | inconclusive: 8.28 µM [inhibitor, partial curve, poor fit]
CCC(Oc1ccccc1)C(=O)Nc1cc(C)on1 (stereo not drawn) | inconclusive: 9.28 µM [inhibitor, partial curve, poor fit]

SMILES | Potency
O=C(NN1CC(C(=O)OCc2ccc(Br)cc2)CC1=O)c1ccccc1 (stereo not drawn) | inactive
COc1cc(NC(=O)CCCN2C(=O)NC(C)(C)C2=O)cc(OC)c1 | inactive
Cc1cccc(OCC(=O)Nc2cccc(C(=O)Nc3ccccc3C(=O)O)c2)c1 | inconclusive: 18.5 µM [inhibitor, single point]
O=C(CN(Cc1ccccc1)C(=O)CCC(=O)Nc1ccccn1)NCCc1ccccc1 | active: 13.1 µM
Cc1cccc(OCCCCCN2CCOCC2)c1C | inconclusive: 10.4 µM [inhibitor, single point]
COc1ccccc1CN=C1NC(=O)C(CC(=O)Nc2ccc(C(C)=O)cc2)S1 (stereo not drawn) | inactive
O=C(CCn1cnc2ncccc2c1=O)N1CCN(c2cccc(Cl)c2)CC1 | inconclusive: 2.94 µM [inhibitor, full curve, poor fit]
CCc1cccc(NC(=O)COC(=O)C2CCN(c3ccc(C(F)(F)F)cn3)CC2)c1 | inactive
COc1ccc(C(=O)C2CCCN(C(=O)c3cc(C(C)C)no3)C2)cc1F (stereo not drawn) | inconclusive: 11.7 µM [inhibitor, partial curve, poor fit]
COc1ccc(-n2cnc3sc4c(c3c2=O)CCCC4)cc1 | inactive
CCCCN(CCCC)C(=O)CSc1nnc2n(C)c(=O)c3c4c(sc3n12)CCCC4 | inconclusive: 1.65 µM [inhibitor, full curve]
O=c1c(-c2ccccc2)c(O)c2cccc3c2n1CCC3 | inconclusive: 6.57 µM [inhibitor, partial curve]
CS(=O)(=O)c1ccc(-c2nnn(CC(=O)Nc3ccc4c(c3)OCCO4)n2)cc1 | inactive
COC(=O)CCC/C=C1/SCC(NC(=O)c2ccccc2)C1=O (stereo not drawn) | active: 9.28 µM
O=C(CNC(=O)C(c1ccccc1)c1ccccc1)N/N=C\c1cccc(O)c1 | inconclusive: 0.415 µM [inhibitor, full curve, poor fit]
Clc1ccc(CON/C=N/c2ncnc3sccc23)c(Cl)c1 | inactive
O=C(Nc1ccc2c(c1)OCO2)c1cc2n(n1)C(C(F)(F)F)CC(c1ccccc1)N2 (stereo not drawn) | inconclusive: 9.28 µM [inhibitor, partial curve]
Nc1ccc(C(=O)N2CCN(S(=O)(=O)c3ccc(Cl)cc3)CC2)cc1[N+](=O)[O-] | inconclusive: 10.4 µM [inhibitor, single point]
Cc1no[n+]([O-])c1COc1ccccc1/C=N/n1nnnc1N | inconclusive: 9.28 µM [inhibitor, single point]
C=C(C)CSc1nc2c(cc1C#N)CCC2 | active: 14.7 µM
CC(C(=O)Nc1ccc(S(=O)(=O)N2CCCC2)cc1)N(C)Cc1ccc(F)cc1 (stereo not drawn) | inconclusive: 18.5 µM [inhibitor, single point]
O=C(c1cccs1)N1CCN(c2ccc([N+](=O)[O-])cc2F)CC1 | inconclusive: 0.329 µM [inhibitor, full curve, poor fit]
COc1ccc(CCNC(=O)/C(C#N)=C/c2ccc(OCC(=O)NCC3CCCO3)cc2)cc1OC (stereo not drawn) | inconclusive: 2.94 µM [inhibitor, partial curve]
